For this experiment, the target named is AR ΔDBD, recombinant from E. coli (UniProt P10275). Kind of experiment: condition: protein around 20 µM in the cell, peptide around 200 µM in the syringe; ITC; protein (around 20 µM, 0.2 ml) in the sample cell, peptide (around 200 µM) in the syringe; 25 °C; first injection 0.4 µl, then 19 injections of 2 µl; both purified.

Sequences of proteins named here, by UniProt entry; tags and fusion partners are left off. A change or cut given only in a name is not applied to a line headed by its entry.
UniProt P10275: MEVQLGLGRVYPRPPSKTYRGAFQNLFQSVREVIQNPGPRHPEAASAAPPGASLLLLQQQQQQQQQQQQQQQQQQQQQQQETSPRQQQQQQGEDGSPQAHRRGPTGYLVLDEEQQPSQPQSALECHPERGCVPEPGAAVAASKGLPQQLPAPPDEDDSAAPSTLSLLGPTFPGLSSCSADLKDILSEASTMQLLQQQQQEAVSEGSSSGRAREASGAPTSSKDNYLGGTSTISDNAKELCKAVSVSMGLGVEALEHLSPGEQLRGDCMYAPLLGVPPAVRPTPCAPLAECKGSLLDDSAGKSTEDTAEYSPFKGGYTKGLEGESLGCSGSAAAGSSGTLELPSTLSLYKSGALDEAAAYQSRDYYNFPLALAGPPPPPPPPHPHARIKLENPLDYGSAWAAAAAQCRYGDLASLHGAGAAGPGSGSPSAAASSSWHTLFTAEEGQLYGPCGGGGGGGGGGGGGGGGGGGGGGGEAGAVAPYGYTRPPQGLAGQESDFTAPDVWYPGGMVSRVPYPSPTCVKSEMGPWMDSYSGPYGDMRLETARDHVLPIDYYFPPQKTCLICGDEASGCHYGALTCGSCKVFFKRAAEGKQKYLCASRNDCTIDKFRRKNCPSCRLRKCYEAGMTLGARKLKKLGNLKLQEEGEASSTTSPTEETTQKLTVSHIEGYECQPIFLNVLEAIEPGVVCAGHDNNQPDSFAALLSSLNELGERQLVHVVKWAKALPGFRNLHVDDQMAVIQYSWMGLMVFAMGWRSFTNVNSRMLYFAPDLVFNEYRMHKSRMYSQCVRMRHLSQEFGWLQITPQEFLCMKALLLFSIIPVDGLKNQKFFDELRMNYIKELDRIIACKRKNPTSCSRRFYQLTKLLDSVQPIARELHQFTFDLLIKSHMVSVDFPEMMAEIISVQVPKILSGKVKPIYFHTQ

No constants are given. Whether binding was seen depends on the method and setting.

B1: AR pep‐PROTAC drug (designed peptide PROTAC) (peptide)
peptide: YLCSSNNNRERDKFRRGGSGGTSFEQFWAWLWP
In the case of B1, the binding result is given as “no binding”.

The values are drawn from publication PMC9534960, “De Novo Design of an Androgen Receptor DNA Binding Domain‐Targeted peptide PROTAC for Prostate Cancer Therapy” (Advanced Science, 2022).
